No constants are given. Whether binding was seen depends on the method and setting. In cells and extracts the contact can be indirect. Here binding means that the protein was enriched with, or labelled near, the bait; the list need not be complete.
T1: APEX2-TBC1D15 (UniProt Q8TC07)
T1 sequence: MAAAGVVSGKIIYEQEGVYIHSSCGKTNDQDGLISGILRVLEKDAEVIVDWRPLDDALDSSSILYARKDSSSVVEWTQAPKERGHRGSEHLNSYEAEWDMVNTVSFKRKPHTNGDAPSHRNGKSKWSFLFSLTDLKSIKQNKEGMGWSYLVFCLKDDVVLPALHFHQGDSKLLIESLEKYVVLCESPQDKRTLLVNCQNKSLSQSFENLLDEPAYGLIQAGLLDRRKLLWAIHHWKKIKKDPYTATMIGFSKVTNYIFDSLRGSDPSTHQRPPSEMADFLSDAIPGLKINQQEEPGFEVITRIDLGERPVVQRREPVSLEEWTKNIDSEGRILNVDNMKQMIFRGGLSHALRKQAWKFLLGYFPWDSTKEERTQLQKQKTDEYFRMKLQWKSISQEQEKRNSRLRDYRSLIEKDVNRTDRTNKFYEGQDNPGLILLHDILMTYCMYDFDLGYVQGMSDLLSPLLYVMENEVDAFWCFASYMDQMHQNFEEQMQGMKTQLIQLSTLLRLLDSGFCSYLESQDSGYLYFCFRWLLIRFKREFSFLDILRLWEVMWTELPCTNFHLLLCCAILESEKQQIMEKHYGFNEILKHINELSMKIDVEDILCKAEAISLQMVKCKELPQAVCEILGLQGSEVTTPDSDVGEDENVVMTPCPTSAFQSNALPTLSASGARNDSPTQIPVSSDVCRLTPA

Amino acid sequences for entries named in this document (tags omitted).
UniProt Q9GZU1: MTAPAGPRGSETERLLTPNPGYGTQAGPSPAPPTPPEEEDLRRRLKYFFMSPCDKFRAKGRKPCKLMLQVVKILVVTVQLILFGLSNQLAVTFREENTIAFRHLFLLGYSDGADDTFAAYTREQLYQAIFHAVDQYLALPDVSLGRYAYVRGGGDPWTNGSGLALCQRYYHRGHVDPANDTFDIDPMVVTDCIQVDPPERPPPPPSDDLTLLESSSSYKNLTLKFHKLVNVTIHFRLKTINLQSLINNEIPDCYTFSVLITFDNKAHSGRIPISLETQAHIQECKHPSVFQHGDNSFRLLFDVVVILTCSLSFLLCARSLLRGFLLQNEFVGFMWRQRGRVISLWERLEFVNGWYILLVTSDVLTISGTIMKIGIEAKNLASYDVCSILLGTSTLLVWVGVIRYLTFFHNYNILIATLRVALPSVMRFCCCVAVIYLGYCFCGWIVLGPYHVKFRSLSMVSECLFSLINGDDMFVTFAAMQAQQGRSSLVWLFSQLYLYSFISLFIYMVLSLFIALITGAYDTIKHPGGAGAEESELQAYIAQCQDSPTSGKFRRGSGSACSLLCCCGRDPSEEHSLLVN


Legend:
APEX2-TBC1D15 = molecular target: T1, APEX2-TBC1D15; assay: proximity labelling
TRPML1-APEX2 = TRPML1-APEX2 (UniProt Q9GZU1); assay: proximity labelling

Row | Binder | binding (APEX2-TBC1D15) | binding (TRPML1-APEX2)
1 | ESYT2 (protein, UniProt A0FGR8 1-921) MTANRDAALSSHRHPGCAQRPRTPTFASSSQRRSAFGFDDGNFPGLGERSHAPGSRLGARRRAKTARGLRGHRQRGAGAGLSRPGSARAPSPPRPGGPENPGGVLSVELPGLLAQLARSFALLLPVYALGYLGLSFSWVLLALALLAWCRRSRGLKALRLCRALALLEDEERVVRLGVRACDLPAWVHFPDTERAEWLNKTVKHMWPFICQFIEKLFRETIEPAVRGANTHLSTFSFTKVDVGQQPLRINGVKVYTENVDKRQIILDLQISFVGNCEIDLEIKRYFCRAGVKSIQIHGTMRVILEPLIGDMPLVGALSIFFLRKPLLEINWTGLTNLLDVPGLNGLSDTIILDIISNYLVLPNRITVPLVSEVQIAQLRFPVPKGVLRIHFIEAQDLQGKDTYLKGLVKGKSDPYGIIRVGNQIFQSRVIKENLSPKWNEVYEALVYEHPGQELEIELFDEDPDKDDFLGSLMIDLIEVEKERLLDEWFTLDEVPKGKLHLRLEWLTLMPNASNLDKVLTDIKADKDQANDGLSSALLILYLDSARNLPSGKKISSNPNPVVQMSVGHKAQESKIRYKTNEPVWEENFTFFIHNPKRQDLEVEVRDEQHQCSLGNLKVPLSQLLTSEDMTVSQRFQLSNSGPNSTIKMKIALRVLHLEKRERPPDHQHSAQVKRPSVSKEGRKTSIKSHMSGSPGPGGSNTAPSTPVIGGSDKPGMEEKAQPPEAGPQGLHDLGRSSSSLLASPGHISVKEPTPSIASDISLPIATQELRQRLRQLENGTTLGQSPLGQIQLTIRHSSQRNKLIVVVHACRNLIAFSEDGSDPYVRMYLLPDKRRSGRRKTHVSKKTLNPVFDQSFDFSVSLPEVQRRTLDVAVKNSGGFLSKDKGLLGKVLVALASEELAKGWTQWYDLTEDGTRPQAMT | binds | –
2 | HIP1 (protein, UniProt O00291 1-1037) MDRMASSMKQVPNPLPKVLSRRGVGAGLEAAERESFERTQTVSINKAINTQEVAVKEKHARTCILGTHHEKGAQTFWSVVNRLPLSSNAVLCWKFCHVFHKLLRDGHPNVLKDSLRYRNELSDMSRMWGHLSEGYGQLCSIYLKLLRTKMEYHTKNPRFPGNLQMSDRQLDEAGESDVNNFFQLTVEMFDYLECELNLFQTVFNSLDMSRSVSVTAAGQCRLAPLIQVILDCSHLYDYTVKLLFKLHSCLPADTLQGHRDRFMEQFTKLKDLFYRSSNLQYFKRLIQIPQLPENPPNFLRASALSEHISPVVVIPAEASSPDSEPVLEKDDLMDMDASQQNLFDNKFDDIFGSSFSSDPFNFNSQNGVNKDEKDHLIERLYREISGLKAQLENMKTESQRVVLQLKGHVSELEADLAEQQHLRQQAADDCEFLRAELDELRRQREDTEKAQRSLSEIERKAQANEQRYSKLKEKYSELVQNHADLLRKNAEVTKQVSMARQAQVDLEREKKELEDSLERISDQGQRKTQEQLEVLESLKQELATSQRELQVLQGSLETSAQSEANWAAEFAELEKERDSLVSGAAHREEELSALRKELQDTQLKLASTEESMCQLAKDQRKMLLVGSRKAAEQVIQDALNQLEEPPLISCAGSADHLLSTVTSISSCIEQLEKSWSQYLACPEDISGLLHSITLLAHLTSDAIAHGATTCLRAPPEPADSLTEACKQYGRETLAYLASLEEEGSLENADSTAMRNCLSKIKAIGEELLPRGLDIKQEELGDLVDKEMAATSAAIETATARIEEMLSKSRAGDTGVKLEVNERILGCCTSLMQAIQVLIVASKDLQREIVESGRGTASPKEFYAKNSRWTEGLISASKAVGWGATVMVDAADLVVQGRGKFEELMVCSHEIAASTAQLVAASKVKADKDSPNLAQLQQASRGVNQATAGVVASTISGKSQIEETDNMDFSSMTLTQIKRQEMDSQVRVLELENELQKERQKLGELRKKHYELAGVAEGWEEGTEASPPTLQEVVTEKE | binds | –

More lines, now with the values ahead:

Row | binding (APEX2-TBC1D15) | binding (TRPML1-APEX2) | Binder
3 | binds | – | RABL1FIP1 (protein, UniProt Q6WKZ4 1-1283) MSLMVSAGRGLGAVWSPTHVQVTVLQARGLRAKGPGGTSDAYAVIQVGKEKYATSVSERSLGAPVWREEATFELPSLLSSGPAAAATLQLTVLHRALLGLDKFLGRAEVDLRDLHRDQGRRKTQWYKLKSKPGKKDKERGEIEVDIQFMRNNMTASMFDLSMKDKSRNPFGKLKDKIKGKNKDSGSDTASAIIPSTTPSVDSDDESVVKDKKKKSKIKTLLSKSNLQKTPLSQSMSVLPTSKPEKVLLRPGDFQSQWDEDDNEDESSSASDVMSHKRTASTDLKQLNQVNFTLPKKEGLSFLGGLRSKNDVLSRSNVCINGNHVYLEQPEAKGEIKDSSPSSSPSPKGFRKKHLFSSTENLAAGSWKEPAEGGGLSSDRQLSESSTKDSLKSMTLPSYRPAPLVSGDLRENMAPANSEATKEAKESKKPESRRSSLLSLMTGKKDVAKGSEGENPLTVPGREKEGMLMGVKPGEDASGPAEDLVRRSEKDTAAVVSRQGSSLNLFEDVQITEPEAEPESKSEPRPPISSPRAPQTRAVKPRLEVSPEAQPTARLPSPTDSPSSLPPLPSSSGQASVPSELGHGADTQSSESPSVFSSLSSPIAAPISTSTPIESWPLVDRGQAKSEGPPLLPKAELQTESLTPVPNSGSSALGSLFKQPSFPANKGTEDSLMGRTRETGTEKNTSSLELEESLPEQPETGRQEEELPRFPCKKQDYSPSSGEAQEVPFALSLSSDGAVSPVGELAAGGDRDLESQAGSLVESKARDAAEEVAPPLPMGASVPSIDSMMRKLEEMGLNLRKDQKKTKKRVSFSEQLFTEEAVAGAALLVEGHSSCPQELNPAWSVAGNASDGEPPESPHAEDSERESVTTPGPATCGAPASPADHLLLPSQEESFSEVPMSEASSAKDTPLFRMEGEDALVTQYQSKASDHEGLLSDPLSDLQLVSDFKSPIMADLNLSLPSIPEVASDDERIDQVEDDGDQVEDDGETAKSSTLDIGALSLGLVVPCPERGKGPSGEADRLVLGEGLCDFRLQAPQASVTAPSEQTTEFGIHKPHLGKSSSLDKQLPGPSGGEEEKPMGNGSPSPPPGTSLDNPVPSPSPSEIFPVTHSFPSSAHSDTHHTSTAESQKKATAEGSAGRVENFGKRKPLLQAWVSPSETHPVSAQPGAGTGSAKHRLHPVKPMNAMATKVANCSLGTATIISENLNNEVMMKKYSPSDPAFAYAQLTHDELIQLVLKQKETISKKEFQVRELEDYIDNLLVRVMEETPNILRIPTQVGKKAGKM
4 | – | binds | TBC1D15 (endogenous) (protein, UniProt Q8TC07 1-691) MAAAGVVSGKIIYEQEGVYIHSSCGKTNDQDGLISGILRVLEKDAEVIVDWRPLDDALDSSSILYARKDSSSVVEWTQAPKERGHRGSEHLNSYEAEWDMVNTVSFKRKPHTNGDAPSHRNGKSKWSFLFSLTDLKSIKQNKEGMGWSYLVFCLKDDVVLPALHFHQGDSKLLIESLEKYVVLCESPQDKRTLLVNCQNKSLSQSFENLLDEPAYGLIQAGLLDRRKLLWAIHHWKKIKKDPYTATMIGFSKVTNYIFDSLRGSDPSTHQRPPSEMADFLSDAIPGLKINQQEEPGFEVITRIDLGERPVVQRREPVSLEEWTKNIDSEGRILNVDNMKQMIFRGGLSHALRKQAWKFLLGYFPWDSTKEERTQLQKQKTDEYFRMKLQWKSISQEQEKRNSRLRDYRSLIEKDVNRTDRTNKFYEGQDNPGLILLHDILMTYCMYDFDLGYVQGMSDLLSPLLYVMENEVDAFWCFASYMDQMHQNFEEQMQGMKTQLIQLSTLLRLLDSGFCSYLESQDSGYLYFCFRWLLIRFKREFSFLDILRLWEVMWTELPCTNFHLLLCCAILESEKQQIMEKHYGFNEILKHINELSMKIDVEDILCKAEAISLQMVKCKELPQAVCEILGLQGSEVTTPDSDVGEDENVVMTPCPTSAFQSNALPTLSASGARNDSPTQIPVSSDVCRLTPA
5 | binds | – | PICALM (protein, UniProt Q13492 1-652) MSGQSLTDRITAAQHSVTGSAVSKTVCKATTHEIMGPKKKHLDYLIQCTNEMNVNIPQLADSLFERTTNSSWVVVFKSLITTHHLMVYGNERFIQYLASRNTLFNLSNFLDKSGLQGYDMSTFIRRYSRYLNEKAVSYRQVAFDFTKVKRGADGVMRTMNTEKLLKTVPIIQNQMDALLDFNVNSNELTNGVINAAFMLLFKDAIRLFAAYNEGIINLLEKYFDMKKNQCKEGLDIYKKFLTRMTRISEFLKVAEQVGIDRGDIPDLSQAPSSLLDALEQHLASLEGKKIKDSTAASRATTLSNAVSSLASTGLSLTKVDEREKQAALEEEQARLKALKEQRLKELAKKPHTSLTTAASPVSTSAGGIMTAPAIDIFSTPSSSNSTSKLPNDLLDLQQPTFHPSVHPMSTASQVASTWGDPFSATVDAVDDAIPSLNPFLTKSSGDVHLSISSDVSTFTTRTPTHEMFVGFTPSPVAQPHPSAGLNVDFESVFGNKSTNVIVDSGGFDELGGLLKPTVASQNQNLPVAKLPPSKLVSDDLDSSLANLVGNLGIGNGTTKNDVNWSQPGEKKLTGGSNWQPKVAPTTAWNAATMAPPVMAYPATTPTGMIGYGIPPQMGSVPVMTQPTLIYSQPVMRPPNPFGPVSGAQIQFM
